{"sequences": {"note": "Amino acid sequences for entries named in this document (tags omitted).", "UniProt P02566": "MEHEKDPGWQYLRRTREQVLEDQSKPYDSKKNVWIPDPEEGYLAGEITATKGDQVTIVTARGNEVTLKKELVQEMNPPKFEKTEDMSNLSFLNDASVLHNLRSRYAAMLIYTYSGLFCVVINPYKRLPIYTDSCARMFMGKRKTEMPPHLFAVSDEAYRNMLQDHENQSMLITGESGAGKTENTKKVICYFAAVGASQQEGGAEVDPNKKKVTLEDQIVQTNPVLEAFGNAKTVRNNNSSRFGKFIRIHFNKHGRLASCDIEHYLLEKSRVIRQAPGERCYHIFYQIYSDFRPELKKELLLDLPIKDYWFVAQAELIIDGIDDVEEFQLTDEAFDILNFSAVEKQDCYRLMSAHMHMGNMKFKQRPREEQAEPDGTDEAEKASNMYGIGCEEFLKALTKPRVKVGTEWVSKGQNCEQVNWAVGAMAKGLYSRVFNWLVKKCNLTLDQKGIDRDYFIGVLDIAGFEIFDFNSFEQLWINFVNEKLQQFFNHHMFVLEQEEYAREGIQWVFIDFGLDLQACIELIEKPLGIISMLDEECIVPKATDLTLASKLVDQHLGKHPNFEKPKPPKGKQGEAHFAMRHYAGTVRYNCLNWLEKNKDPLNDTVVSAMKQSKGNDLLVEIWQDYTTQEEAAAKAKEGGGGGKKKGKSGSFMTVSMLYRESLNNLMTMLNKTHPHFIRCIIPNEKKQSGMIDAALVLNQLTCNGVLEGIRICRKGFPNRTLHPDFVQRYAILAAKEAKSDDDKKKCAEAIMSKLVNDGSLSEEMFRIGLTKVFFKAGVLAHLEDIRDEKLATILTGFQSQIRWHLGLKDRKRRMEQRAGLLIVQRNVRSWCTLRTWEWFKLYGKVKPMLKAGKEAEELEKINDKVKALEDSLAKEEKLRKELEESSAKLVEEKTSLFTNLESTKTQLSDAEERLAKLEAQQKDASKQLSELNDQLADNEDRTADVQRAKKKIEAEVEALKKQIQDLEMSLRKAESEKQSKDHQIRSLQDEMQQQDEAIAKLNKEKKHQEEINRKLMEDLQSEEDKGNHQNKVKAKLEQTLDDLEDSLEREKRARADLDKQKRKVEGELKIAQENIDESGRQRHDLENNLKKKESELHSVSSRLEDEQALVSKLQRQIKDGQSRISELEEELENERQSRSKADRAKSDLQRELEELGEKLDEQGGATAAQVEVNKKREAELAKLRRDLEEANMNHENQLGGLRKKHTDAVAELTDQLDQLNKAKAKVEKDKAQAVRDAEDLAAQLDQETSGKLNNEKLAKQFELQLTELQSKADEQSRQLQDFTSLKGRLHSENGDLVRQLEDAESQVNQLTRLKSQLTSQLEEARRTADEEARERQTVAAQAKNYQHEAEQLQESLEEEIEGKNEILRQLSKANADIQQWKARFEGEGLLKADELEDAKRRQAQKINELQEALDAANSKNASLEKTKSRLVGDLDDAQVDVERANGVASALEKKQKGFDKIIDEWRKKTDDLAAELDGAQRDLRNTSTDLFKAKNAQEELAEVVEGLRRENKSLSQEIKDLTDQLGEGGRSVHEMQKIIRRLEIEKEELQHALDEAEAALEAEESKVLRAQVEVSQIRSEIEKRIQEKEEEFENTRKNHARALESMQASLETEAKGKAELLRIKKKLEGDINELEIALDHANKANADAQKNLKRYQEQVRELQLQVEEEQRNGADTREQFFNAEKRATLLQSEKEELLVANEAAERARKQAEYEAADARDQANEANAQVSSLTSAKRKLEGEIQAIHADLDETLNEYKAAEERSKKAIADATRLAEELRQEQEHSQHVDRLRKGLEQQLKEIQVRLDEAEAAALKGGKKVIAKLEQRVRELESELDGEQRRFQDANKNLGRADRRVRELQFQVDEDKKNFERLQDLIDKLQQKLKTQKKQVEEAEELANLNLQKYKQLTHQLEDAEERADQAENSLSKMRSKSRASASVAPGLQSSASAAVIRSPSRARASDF"}, "source": "paper PMC11317515", "key": {"[1]": {"target": "T1, UNC-45 (endogenous) (C. elegans) (UniProt G5EG62)", "T1 sequence": "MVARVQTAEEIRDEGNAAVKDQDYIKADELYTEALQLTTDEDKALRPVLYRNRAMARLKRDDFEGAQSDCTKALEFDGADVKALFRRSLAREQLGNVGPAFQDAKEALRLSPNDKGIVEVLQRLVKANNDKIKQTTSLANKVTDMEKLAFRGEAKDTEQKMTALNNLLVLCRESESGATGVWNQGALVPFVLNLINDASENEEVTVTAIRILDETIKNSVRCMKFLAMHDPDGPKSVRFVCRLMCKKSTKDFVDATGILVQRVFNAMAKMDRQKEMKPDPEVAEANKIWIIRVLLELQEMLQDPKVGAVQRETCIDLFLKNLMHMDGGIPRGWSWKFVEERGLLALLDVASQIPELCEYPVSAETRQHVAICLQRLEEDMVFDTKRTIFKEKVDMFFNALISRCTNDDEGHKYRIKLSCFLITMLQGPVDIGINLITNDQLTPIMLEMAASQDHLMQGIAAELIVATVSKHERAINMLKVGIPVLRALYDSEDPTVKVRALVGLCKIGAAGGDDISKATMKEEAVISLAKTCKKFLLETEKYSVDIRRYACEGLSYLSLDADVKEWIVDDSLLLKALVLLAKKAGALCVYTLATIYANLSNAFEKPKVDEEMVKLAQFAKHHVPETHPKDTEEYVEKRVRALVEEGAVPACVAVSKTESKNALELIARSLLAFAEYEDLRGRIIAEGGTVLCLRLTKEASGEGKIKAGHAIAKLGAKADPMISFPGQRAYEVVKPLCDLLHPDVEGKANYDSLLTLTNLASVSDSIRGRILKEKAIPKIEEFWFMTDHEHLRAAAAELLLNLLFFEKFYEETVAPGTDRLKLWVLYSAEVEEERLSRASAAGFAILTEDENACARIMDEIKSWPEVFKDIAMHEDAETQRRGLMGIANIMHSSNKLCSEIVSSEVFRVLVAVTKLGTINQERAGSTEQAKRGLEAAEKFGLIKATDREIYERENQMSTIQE", "assay": "co-IP; UNC-45 antibody, from worm lysates (transgenic worms with FLAG-NHL-1 and HA-F40A3.6; unc-45 mutants), done as the FLAG co-immunoprecipitation; western blot"}, "[2]": {"target": "T2, UNC-45(b131, p.G427E) (endogenous) (C. elegans) (UniProt G5EG62)", "T2 sequence": "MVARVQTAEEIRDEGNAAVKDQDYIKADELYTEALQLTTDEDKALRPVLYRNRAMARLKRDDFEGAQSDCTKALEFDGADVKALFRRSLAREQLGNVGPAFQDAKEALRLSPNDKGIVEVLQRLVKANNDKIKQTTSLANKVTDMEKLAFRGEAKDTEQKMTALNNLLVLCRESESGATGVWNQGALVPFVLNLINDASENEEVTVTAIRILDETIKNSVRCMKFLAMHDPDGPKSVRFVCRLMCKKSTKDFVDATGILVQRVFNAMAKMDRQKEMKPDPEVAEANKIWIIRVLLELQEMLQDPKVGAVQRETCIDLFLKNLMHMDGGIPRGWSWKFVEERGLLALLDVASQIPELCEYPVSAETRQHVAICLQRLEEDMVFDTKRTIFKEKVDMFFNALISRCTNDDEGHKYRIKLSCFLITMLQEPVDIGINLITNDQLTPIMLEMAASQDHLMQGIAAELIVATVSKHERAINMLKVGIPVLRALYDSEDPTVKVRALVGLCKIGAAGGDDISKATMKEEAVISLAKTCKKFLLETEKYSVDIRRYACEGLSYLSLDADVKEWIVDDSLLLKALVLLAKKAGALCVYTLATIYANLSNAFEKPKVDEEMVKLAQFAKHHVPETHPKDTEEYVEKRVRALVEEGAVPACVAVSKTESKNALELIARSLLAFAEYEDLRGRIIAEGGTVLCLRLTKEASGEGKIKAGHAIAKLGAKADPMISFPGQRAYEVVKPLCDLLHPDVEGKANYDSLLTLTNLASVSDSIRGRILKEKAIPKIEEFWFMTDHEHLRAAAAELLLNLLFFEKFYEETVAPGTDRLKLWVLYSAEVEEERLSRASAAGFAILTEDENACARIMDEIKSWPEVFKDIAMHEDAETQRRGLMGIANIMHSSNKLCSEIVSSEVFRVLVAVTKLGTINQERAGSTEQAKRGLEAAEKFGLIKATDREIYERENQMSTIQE", "assay": "co-IP; UNC-45 antibody, from worm lysates (transgenic worms with FLAG-NHL-1 and HA-F40A3.6; unc-45 mutants), done as the FLAG co-immunoprecipitation; western blot"}, "[3]": {"target": "T3, FLAG-NHL-1 (C. elegans) (UniProt Q03601)", "T3 sequence": "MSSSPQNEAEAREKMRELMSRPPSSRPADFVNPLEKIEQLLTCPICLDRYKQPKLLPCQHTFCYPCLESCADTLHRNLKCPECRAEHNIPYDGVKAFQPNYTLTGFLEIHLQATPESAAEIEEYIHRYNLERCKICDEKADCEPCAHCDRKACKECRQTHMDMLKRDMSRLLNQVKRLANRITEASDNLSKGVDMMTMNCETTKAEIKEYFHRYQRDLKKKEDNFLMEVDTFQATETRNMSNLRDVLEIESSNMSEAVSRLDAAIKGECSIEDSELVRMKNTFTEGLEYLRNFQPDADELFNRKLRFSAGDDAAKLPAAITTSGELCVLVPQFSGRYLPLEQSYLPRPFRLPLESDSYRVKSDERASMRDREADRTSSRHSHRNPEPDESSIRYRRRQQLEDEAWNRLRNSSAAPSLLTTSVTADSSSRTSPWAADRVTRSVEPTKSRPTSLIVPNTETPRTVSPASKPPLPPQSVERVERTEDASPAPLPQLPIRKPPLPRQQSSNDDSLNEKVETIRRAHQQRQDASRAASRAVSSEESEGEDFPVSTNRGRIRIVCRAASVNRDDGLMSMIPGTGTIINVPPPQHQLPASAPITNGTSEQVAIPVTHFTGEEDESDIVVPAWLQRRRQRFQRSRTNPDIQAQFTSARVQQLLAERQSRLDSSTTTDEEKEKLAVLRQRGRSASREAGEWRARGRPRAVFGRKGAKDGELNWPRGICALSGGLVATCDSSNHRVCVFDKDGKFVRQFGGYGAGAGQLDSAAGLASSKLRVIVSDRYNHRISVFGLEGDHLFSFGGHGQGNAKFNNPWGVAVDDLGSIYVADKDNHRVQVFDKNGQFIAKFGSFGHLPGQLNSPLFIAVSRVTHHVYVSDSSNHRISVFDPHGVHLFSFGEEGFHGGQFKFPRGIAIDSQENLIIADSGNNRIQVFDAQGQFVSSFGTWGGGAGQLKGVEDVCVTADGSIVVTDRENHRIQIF", "assay": "co-IP; anti-FLAG (M2) and Dynabeads Protein A from lysates (NP40 lysis buffer, diluted in PBS with 0.02% Tween-20, 4 °C) of transgenic worms with FLAG-NHL-1 and HA-F40A3.6 in wild-type or unc-54(e1301) background, 25 °C for 24 h before collection; western blot"}, "[4]": {"target": "UNC-54 (myosin heavy chain B, MHC B) (C. elegans) (UniProt P02566)", "assay": "co-IP; UNC-54/MHC B antibody, from lysates of transgenic worms with FLAG-NHL-1 and HA-F40A3.6, done as the FLAG co-immunoprecipitation; western blot"}}, "note": "These are yes or no findings as the source states them, for the method shown. Binding seen in cells or lysates may run through a third protein. Some entries that bind do so weakly or less than the wild type. For some assays here: Sequences can lack the tags named with a protein."}
{"molecule": "UNC-54 (myosin heavy chain B, MHC B) (from UniProt P02566 1-1963)", "values": [{"measurement": "binding", "setting": "[1]", "value": "binds"}, {"measurement": "binding", "setting": "[2]", "value": "binds"}, {"measurement": "binding", "setting": "[3]", "value": "binds"}]}
{"molecule": "FLAG-NHL-1 (protein, UniProt Q03601 1-974) MSSSPQNEAEAREKMRELMSRPPSSRPADFVNPLEKIEQLLTCPICLDRYKQPKLLPCQHTFCYPCLESCADTLHRNLKCPECRAEHNIPYDGVKAFQPNYTLTGFLEIHLQATPESAAEIEEYIHRYNLERCKICDEKADCEPCAHCDRKACKECRQTHMDMLKRDMSRLLNQVKRLANRITEASDNLSKGVDMMTMNCETTKAEIKEYFHRYQRDLKKKEDNFLMEVDTFQATETRNMSNLRDVLEIESSNMSEAVSRLDAAIKGECSIEDSELVRMKNTFTEGLEYLRNFQPDADELFNRKLRFSAGDDAAKLPAAITTSGELCVLVPQFSGRYLPLEQSYLPRPFRLPLESDSYRVKSDERASMRDREADRTSSRHSHRNPEPDESSIRYRRRQQLEDEAWNRLRNSSAAPSLLTTSVTADSSSRTSPWAADRVTRSVEPTKSRPTSLIVPNTETPRTVSPASKPPLPPQSVERVERTEDASPAPLPQLPIRKPPLPRQQSSNDDSLNEKVETIRRAHQQRQDASRAASRAVSSEESEGEDFPVSTNRGRIRIVCRAASVNRDDGLMSMIPGTGTIINVPPPQHQLPASAPITNGTSEQVAIPVTHFTGEEDESDIVVPAWLQRRRQRFQRSRTNPDIQAQFTSARVQQLLAERQSRLDSSTTTDEEKEKLAVLRQRGRSASREAGEWRARGRPRAVFGRKGAKDGELNWPRGICALSGGLVATCDSSNHRVCVFDKDGKFVRQFGGYGAGAGQLDSAAGLASSKLRVIVSDRYNHRISVFGLEGDHLFSFGGHGQGNAKFNNPWGVAVDDLGSIYVADKDNHRVQVFDKNGQFIAKFGSFGHLPGQLNSPLFIAVSRVTHHVYVSDSSNHRISVFDPHGVHLFSFGEEGFHGGQFKFPRGIAIDSQENLIIADSGNNRIQVFDAQGQFVSSFGTWGGGAGQLKGVEDVCVTADGSIVVTDRENHRIQIF", "values": [{"measurement": "binding", "setting": "[4]", "value": "binds"}, {"measurement": "binding", "setting": "[1]", "value": "binds"}]}
